From patent US10842776B2, “Hycanthone derivatives and Primaquine derivatives for use in the prevention and/or the treatment of disorders associated to gammaherpesvirus” (priority 2016, dated 2020)
For part of these data: At least one structure is not confirmed: it was looked up by name or label, or the drawing left a doubt. Some results were stated once for a whole list of compounds, not compound by compound.

Legend:
[1] = system: phosphorylation of IκB (NF-κB pathway) in BC-3 PEL cell line; experiment: IκB phosphorylation, western blot; format: cell-based, human; details: 10 μM, pre-treated for 6 and 12 h, BC-3 cells
Protocol: BC-3 cells were pre-treated for 6 h (A) and 12 h (B) with primaquine and hycanthone at 10 μM. DDTC was used as positive control. Whole-cell lysates were prepared as described in Materials and Methods of example F and used for p-IκB western blot analysis by using the appropriate antibodies. […] Treatment of BC-3 cells with DDTC (diethyldithiocarbamate) was carried out in the same conditions and served as a positive control.
BC-3, an HHV-8 positive lymphoblastic cell line (ATCC CRL-2277) and RAMOS, an human Burkitt's lymphoma cell line (ATCC CRL-1596), were routinely maintained in RPMI 1640 medium supplemented with 10% fetal heat-inactivated bovine serum (FBS), and antibiotics (Sigma Chemical Co., St. Louis, Mo.) in a 5% CO2 incubator at 37° C. To prepare whole cell extracts, the cells were washed with cold phosphate-buffered saline twice and lysed in lysis RIPA buffer containing 10 mM Tris-HCl, pH 8.0, 140 mM NaCl, 1% Triton X-100, 1 mM EDTA, 0.5 mM EGTA, 0.1% sodium deoxycholate, 0.1% SDS, supplemented with protease inhibitor mixture (1 mM PMSF, 10 mM β-glycerophosphate, 10 mM NaF, 1 mM sodium orthovanadate, 1 mM sodium pyrophosphate), (ThermoFisher Scientific) at 4° C. for 30 min. […] The supernatants were collected as whole cell extracts, and protein concentration was determined by the Lowry method. […]

[2] = system: BC-3 cells (HHV8 infected PEL cell line); experiment: Cell viability (ATP quantitation, CellTiter Glo) of HHV8-infected cells; format: cell-based, human; details: 10 μM, 48 h, HHV8 infected BC-3 cells
Protocol: HHV8 infected cell line (BC3), HHV8-non infected cell lines (MRC5, HeLa P4), and HHV8 non infected primary cells (human keratinocytes, human cutaneous fibroblasts, B-type lymphocytes CD19+) were grown in vitro and treated by either Primaquine diphosphate, Hycanthone, Paclitaxel or Doxorubicin hydrochloride at a concentration of 10 μM. Cell viability was evaluated by ATP quantitation 48 h after the treatment started.
The effect of Primaquine diphosphate (Sigma), Hycanthone (Sigma), Paclitaxel (Sigma), and Doxorubicin (Sigma) were evaluated on relevant primary cells and cell lines that are or not infected by HHV-8.
• BC-3: cell line established from pleural effusion from a human immunodeficiency virus (HIV) negative patient diagnosed with primary effusion lymphoma (PEL). […]
Cells were treated in vitro with either Primaquine diphosphate (Sigma), Hycanthone (Sigma), Paclitaxel (Sigma), or Doxorubicin hydrochloride (Sigma) at a concentration of 10 μM. The viability of the cells was evaluated 48 h after the treatment started as previously described with the Kit CellTiter Glo (Promega).

| Compound | phosphorylation of IκB [1] | cell death in BC-3 cells [2] |
| --- | --- | --- |
| CCN(CC)C(=S)S [DDTC, Diethyldithiocarbamate] | decrease |  |
| CCN(CC)CCNc1ccc(CO)c2sc3ccccc3c(=O)c12 [Hycanthone] |  | more than 90% |
| COc1cc(NC(C)CCCN)c2ncccc2c1 (stereo not drawn) [Primaquine diphosphate, Primaquine] |  | more than 90% |
